Reference: publication PMC10847742
Results are given in words; binding and its absence hold for the method and conditions named. Binding seen in cells or lysates may run through a third protein.

Protein sequences, listed by entry. Tags and fused reporters are not part of them.
UniProt O70133: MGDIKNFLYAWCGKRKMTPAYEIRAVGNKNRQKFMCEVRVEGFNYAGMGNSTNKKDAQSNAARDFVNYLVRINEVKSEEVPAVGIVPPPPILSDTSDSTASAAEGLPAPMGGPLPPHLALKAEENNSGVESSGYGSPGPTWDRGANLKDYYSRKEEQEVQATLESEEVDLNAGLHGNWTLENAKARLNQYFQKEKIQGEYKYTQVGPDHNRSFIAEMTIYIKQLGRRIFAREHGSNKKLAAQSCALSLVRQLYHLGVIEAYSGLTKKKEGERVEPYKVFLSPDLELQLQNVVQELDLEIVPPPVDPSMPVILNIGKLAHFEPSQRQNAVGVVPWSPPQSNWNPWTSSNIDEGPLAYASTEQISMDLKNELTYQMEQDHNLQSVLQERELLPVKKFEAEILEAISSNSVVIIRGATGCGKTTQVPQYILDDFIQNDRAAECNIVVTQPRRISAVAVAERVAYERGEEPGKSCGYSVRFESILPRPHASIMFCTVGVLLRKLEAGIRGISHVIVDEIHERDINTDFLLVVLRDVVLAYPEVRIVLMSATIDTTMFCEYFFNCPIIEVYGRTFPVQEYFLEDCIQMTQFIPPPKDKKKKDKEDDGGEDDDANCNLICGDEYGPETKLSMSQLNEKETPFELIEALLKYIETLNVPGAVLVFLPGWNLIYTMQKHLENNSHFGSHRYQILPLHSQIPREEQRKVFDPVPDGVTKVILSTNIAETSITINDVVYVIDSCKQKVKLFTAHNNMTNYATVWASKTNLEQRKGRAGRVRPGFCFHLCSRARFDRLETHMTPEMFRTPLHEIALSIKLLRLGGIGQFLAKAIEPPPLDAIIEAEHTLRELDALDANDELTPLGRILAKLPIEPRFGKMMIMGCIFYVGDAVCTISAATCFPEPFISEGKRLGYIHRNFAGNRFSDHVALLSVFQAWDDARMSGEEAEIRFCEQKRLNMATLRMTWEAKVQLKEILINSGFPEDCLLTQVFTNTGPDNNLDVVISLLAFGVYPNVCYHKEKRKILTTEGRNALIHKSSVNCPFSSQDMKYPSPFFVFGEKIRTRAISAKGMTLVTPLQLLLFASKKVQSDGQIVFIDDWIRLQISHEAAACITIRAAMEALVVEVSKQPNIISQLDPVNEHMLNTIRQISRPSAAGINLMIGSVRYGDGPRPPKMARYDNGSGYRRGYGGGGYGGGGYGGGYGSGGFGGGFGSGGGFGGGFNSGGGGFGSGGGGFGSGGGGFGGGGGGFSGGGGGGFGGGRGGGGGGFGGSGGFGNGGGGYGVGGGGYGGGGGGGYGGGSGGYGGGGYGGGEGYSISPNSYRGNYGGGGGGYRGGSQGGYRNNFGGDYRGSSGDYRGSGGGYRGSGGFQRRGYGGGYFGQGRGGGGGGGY

Target: DExH-box helicase 9 (mouse (endogenous in hippocampus)) (UniProt O70133)
Experiment: co-IP; endogenous proteins in mouse hippocampus; Catch & Release v2.0 Reversible Immunoprecipitation System; antibodies to DHX9, STAU1 and FRMP; murine IgG or rabbit IgG as negative control

binding: no binding
B1: staufen double-stranded RNA binding protein 1 (protein, UniProt Q9Z108 1-487)
chain: MYKPVDPHSRMQSTYSYGMRGGAYPPRYFYPFPVPPLLYQVELSVGGQQFNGKGKMRPPVKHDAPARALRTLQSEPLPERLEVNGREAEEENLNKSEISQVFEIALKRNLPVNFEVARESGPPHMKNFVTRVSVGEFVGEGEGKSKKISKKNAARAVLEQLRRLPPLPAVERVKPRIKKKSQPTCKTAPDYGQGMNPISRLAQIQQAKKEKEPEYMLLTERGLPRRREFVMQVKVGHHTAEGVGTNKKVAKRNAAENMLEILGFKVPQAQPAKPALKSEEKTPVKKPGDGRKVTFFEPSPGDENGTSNKDEEFRMPYLSHQQLPAGILPMVPEVAQAVGVSQGHHTKDFTRAAPNPAKATVTAMIARELLYGGTSPTAETILKSNISSGHVPHGPRTRPSEQLYYLSRAQGFQVEYKDFPKNNKNECVSLINCSSQPPLVSHGIGKDVESCHDMAALNILKLLSELDQQSTEMPRTGNGPVSACGRC
